Assay results: US20020115167A1
No constants are given. Whether binding was seen depends on the method and setting. Binding seen in cells or lysates may run through a third protein. Some binding calls cover weakened binding; strength is not graded here. Tags and fused reporters may be left off the sequences shown.

The chains behind the UniProt entries cited, without tags or fusion partners. Where a name states a change or a piece, a line headed by the entry shows the natural chain unless it says otherwise.
UniProt P27448: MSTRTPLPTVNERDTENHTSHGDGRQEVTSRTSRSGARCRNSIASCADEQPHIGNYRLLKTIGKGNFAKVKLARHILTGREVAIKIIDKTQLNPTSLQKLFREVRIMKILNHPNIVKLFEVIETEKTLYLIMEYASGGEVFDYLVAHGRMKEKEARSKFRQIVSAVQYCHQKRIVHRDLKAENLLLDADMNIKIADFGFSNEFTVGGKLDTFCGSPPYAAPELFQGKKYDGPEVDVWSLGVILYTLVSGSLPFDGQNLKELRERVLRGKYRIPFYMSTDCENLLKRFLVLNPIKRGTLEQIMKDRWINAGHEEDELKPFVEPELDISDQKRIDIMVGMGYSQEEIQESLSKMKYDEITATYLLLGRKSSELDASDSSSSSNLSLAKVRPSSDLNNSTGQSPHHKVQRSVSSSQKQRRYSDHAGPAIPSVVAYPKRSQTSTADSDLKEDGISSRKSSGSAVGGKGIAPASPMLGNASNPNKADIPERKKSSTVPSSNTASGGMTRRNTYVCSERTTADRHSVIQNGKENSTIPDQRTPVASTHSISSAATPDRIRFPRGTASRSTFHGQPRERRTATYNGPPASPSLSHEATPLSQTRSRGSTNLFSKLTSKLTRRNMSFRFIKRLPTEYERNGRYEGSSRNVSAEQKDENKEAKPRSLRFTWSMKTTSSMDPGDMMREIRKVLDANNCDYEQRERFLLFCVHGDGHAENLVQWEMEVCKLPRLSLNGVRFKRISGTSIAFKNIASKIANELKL
UniProt Q7KZI7: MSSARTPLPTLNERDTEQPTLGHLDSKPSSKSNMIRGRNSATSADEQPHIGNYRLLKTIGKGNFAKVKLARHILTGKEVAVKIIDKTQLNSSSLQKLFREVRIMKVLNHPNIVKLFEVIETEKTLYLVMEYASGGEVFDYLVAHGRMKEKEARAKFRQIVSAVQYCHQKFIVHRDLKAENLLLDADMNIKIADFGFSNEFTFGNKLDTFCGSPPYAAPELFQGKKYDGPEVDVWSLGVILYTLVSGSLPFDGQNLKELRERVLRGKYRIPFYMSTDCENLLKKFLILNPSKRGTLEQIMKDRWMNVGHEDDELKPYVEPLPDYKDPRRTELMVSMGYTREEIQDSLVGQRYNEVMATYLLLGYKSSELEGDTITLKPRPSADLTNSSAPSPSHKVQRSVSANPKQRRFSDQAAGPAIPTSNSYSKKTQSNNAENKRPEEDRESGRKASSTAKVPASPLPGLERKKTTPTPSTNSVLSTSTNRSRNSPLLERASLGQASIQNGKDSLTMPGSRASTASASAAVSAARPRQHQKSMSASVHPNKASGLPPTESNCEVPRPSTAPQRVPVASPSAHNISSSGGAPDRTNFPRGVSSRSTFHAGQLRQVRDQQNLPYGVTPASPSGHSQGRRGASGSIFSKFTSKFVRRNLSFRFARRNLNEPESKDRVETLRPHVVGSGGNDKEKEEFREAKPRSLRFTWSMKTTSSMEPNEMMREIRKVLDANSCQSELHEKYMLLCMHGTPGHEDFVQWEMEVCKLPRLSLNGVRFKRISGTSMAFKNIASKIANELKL
UniProt Q9P0L2: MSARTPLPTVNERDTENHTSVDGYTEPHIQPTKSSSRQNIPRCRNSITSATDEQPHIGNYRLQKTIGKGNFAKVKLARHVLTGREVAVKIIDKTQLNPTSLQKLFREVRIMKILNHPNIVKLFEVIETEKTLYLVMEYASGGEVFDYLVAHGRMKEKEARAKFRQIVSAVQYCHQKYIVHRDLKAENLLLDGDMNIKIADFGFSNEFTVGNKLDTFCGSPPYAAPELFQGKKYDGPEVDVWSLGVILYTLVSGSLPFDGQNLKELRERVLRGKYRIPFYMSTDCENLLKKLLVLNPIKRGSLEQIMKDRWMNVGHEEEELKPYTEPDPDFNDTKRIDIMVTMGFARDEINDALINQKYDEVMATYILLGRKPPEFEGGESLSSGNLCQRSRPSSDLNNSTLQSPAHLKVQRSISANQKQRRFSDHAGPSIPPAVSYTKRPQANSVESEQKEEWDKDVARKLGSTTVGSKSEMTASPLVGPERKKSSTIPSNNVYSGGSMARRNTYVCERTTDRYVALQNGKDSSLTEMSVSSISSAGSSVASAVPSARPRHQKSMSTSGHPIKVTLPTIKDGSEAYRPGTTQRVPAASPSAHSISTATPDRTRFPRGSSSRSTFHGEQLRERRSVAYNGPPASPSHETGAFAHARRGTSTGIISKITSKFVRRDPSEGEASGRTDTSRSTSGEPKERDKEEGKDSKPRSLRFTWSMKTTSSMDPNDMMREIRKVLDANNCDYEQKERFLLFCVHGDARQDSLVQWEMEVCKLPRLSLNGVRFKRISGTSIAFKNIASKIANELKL

How the values were obtained:
[1] = target: human PAR-1A (hPAR-1A, p78) (human) (UniProt P27448); test: GST pull-down from HT1080 cell lysates, in vitro kinase assay, after PAR-1A antisense
[2] = target: human PAR-1B (hPAR-1B, EMK) (human) (UniProt Q7KZI7); test: GST pull-down from HT1080 cell lysates, in vitro kinase assay, after PAR-1B antisense
[3] = target: human PAR-1C (hPAR-1C) (human) (UniProt Q9P0L2); test: GST pull-down from HT1080 cell lysates, in vitro kinase assay, after PAR-1C antisense

- binding [1]: binds
- binding [2]: binds
- binding [3]: binds
Binder: LMRRHKRRRRKQKVSRIERSSSFSSITDSTMSLNII (peptide, mouse, UniProt Q61062 213-248, looked up, not shown: a dimerising Fc or GST) [GST fusion protein containing the 36 amino acid residues PAR-1 binding fragment from Dvl3]
